Positions count from the first letter of the chain named. No constants are given. Whether binding was seen depends on the method and setting. Some binding calls cover weakened binding; strength is not graded here.
How the values were obtained:
[1] = molecular target: cynomolgus CD93 protein (made in-house) (cynomolgus); assay: summary table; method not given
[2] = molecular target: cynomolgus CD93 protein (made in-house) (cynomolgus); assay: summary table, column 'Cyno Cross (ELISA)'
[3] = molecular target: cynomolgus CD93 protein (made in-house) (cynomolgus); assay: BLI (Octet QKe), biotinylated CD93 on streptavidin sensors
[4] = molecular target: cynomolgus CD93 protein (made in-house) (cynomolgus); assay: ELISA (legend of FIG. 53F)
[5] = molecular target: Human CD93 recombinant protein (Sino Biological Inc, Catalog #12589-H08H) (human) (UniProt Q9NPY3); assay: ELISA, antigen coated at 1 µg/mL
[6] = molecular target: cynomolgus CD93 protein (made in-house) (cynomolgus); assay: ELISA, antigen coated at 1 µg/mL
[7] = molecular target: Human CD93 recombinant protein (Sino Biological Inc, Catalog #12589-H08H) (human) (UniProt Q9NPY3); assay: ELISA (legend of FIG. 53E and 53F)
[8] = molecular target: Human CD93 recombinant protein (Sino Biological Inc, Catalog #12589-H08H) (human) (UniProt Q9NPY3); assay: ELISA, His-tagged human CD93 coated at 1 µg/mL
[9] = molecular target: Human CD93 on cells (human CD93 expressing CHO cells; HUVEC, U937 and KG1a cells) (human) (UniProt Q9NPY3); assay: flow cytometry on human CD93 expressing CHO cells (10 µg/ml by the text)
[10] = molecular target: Human CD93 on cells (human CD93 expressing CHO cells; HUVEC, U937 and KG1a cells) (human) (UniProt Q9NPY3); assay: flow cytometry on KG1a cells
[11] = molecular target: Human CD93 on cells (human CD93 expressing CHO cells; HUVEC, U937 and KG1a cells) (human) (UniProt Q9NPY3); assay: flow cytometry on HUVEC cells
[12] = molecular target: Human CD93 on cells (human CD93 expressing CHO cells; HUVEC, U937 and KG1a cells) (human) (UniProt Q9NPY3); assay: flow cytometry on human CD93 expressing CHO cells, 10 µg/ml
[13] = molecular target: Human CD93 recombinant protein (Sino Biological Inc, Catalog #12589-H08H) (human) (UniProt Q9NPY3); assay: BLI (Octet QKe), biotinylated human CD93 on streptavidin sensors
[14] = molecular target: Human CD93 on cells (human CD93 expressing CHO cells; HUVEC, U937 and KG1a cells) (human) (UniProt Q9NPY3); assay: flow cytometry on human CD93 expressing CHO cells; antibody stored 0, 2 or 4 weeks at 40 °C

Amino acid sequences for entries named in this document (tags omitted). A change or cut given only in a name is not applied to a line headed by its entry. Residues count along the entry.
UniProt Q9NPY3: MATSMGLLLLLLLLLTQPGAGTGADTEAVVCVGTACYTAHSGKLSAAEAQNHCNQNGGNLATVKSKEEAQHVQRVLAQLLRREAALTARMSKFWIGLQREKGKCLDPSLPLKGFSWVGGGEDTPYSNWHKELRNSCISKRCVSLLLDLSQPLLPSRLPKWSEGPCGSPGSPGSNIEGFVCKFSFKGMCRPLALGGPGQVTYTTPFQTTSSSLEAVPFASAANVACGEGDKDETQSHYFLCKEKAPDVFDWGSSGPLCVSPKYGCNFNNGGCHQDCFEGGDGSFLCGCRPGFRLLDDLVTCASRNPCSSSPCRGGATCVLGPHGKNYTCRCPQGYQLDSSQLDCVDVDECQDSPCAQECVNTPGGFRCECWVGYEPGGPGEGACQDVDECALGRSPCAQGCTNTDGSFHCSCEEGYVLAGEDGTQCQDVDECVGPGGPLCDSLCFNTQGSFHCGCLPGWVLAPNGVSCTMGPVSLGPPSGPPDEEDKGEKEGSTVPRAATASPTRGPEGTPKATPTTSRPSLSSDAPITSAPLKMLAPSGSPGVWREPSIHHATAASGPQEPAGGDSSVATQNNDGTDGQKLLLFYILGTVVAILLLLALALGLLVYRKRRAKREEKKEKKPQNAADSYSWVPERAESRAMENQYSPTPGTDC
Human CD93 on cells (human CD93 expressing CHO cells; HUVEC, U937 and KG1a cells): residues 22-652 of Q9NPY3
Human CD93 recombinant protein (Sino Biological Inc, Catalog #12589-H08H): residues 22-580 of Q9NPY3

B1: 7F3 (hybridoma) (antibody, IgG1, V domains shown)
VH: QVQLQQSGADLVRPGASVKLSCKASGYTFTDYEMHWVKQTPVYGLEWIGGIDPETGDTAYNQNFKGKATLTADKSSSAAYMELRSLTSEDSAVYYCTNYGNLYYYAMDYWGQGTSVTVSS
VL: ENVLTQSPAIMSASPGEKVTMTCRASSSVSSSYLHWYQQKSGASPKLWIYSTSNLAFGVPARFSGSGSGTSYSLTISSVEAEDAATYYCQQYSGYPLTFGSGTKLEIK
For B1, the binding [1] was “binds”, the binding [2] was “binds” and the binding [3] was “binds”.

B2: 17B10 (hybridoma) (antibody, V domains shown)
VH: QVQLQQSGPELVKPGASVKISCKASGYAFSSYWLNWVKQRPGKGLEWFGRIYPGDGDTDYNGKFKGKATLTADKSSSTAYMQLRSLTSEDSAVYFCVRGDGYWAMDYWGQGTSVTVSS
VL: DIVMTQAAFSNPVTLGTSASISCRFSKSLLHSNGITYLYWYLQKPGQSPQLLIYQMSNLASGVPDRFSSSGSGTDFTLRISRVEAEDVGVYYCAQNLELPWTFGGGTKLEIK
B2 was tested, and the binding [1] was “binds”, the binding [2] was “binds” and the binding [3] was “binds”.

B3: 7F3-hIgG1 (recombinant chimeric 7F3) (antibody, V domains shown)
VH: B1 VH
VL: B1 VL
With B3 the binding [4] was “binds”, the binding [5] was “binds” and the binding [6] was “binds”. The binding [7] was “binds”, the binding [8] was “binds” and the binding [9] was “binds”.

B4: h7F3 (humanized 7F3, VH3+VL3) (antibody, human IgG1, V domains shown)
VH: QVQLVQSGAEVKKPGASVKVSCKASGYTFTDYEMHWVRQAPGQGLEWMGGIDPETGDTAYNQNFKGRVTMTTDTSTSTAYMELRSLTSDDTAVYYCTNYGNLYYYAMDYWGQGTSVTVSS
VL: EIVLTQSPSSLSASVGDRVTITCRASSSVSSSYLHWYQQKPGKAPKLLIYSTSNLAFGVPSRFSGSGSGTSYTFTISSLQPEDIATYYCQQYSGYPLTFGSGTKLEIK
With B4 the binding [10] was “binds”, the binding [11] was “binds” and the binding [12] was “binds”. For the same binder, the binding [13] was “binds” and the binding [14] was “binds”.

B5: h16E4 (humanized 16E4, VH4+VL6) (antibody, V domains shown)
VH: QVQLVQSGAEVKKPGASVKVSCKASGYTFTSYWMHWVRQAPGQGLEWMGEIDPSASYTYYNQKFKGRVTMTRDKSSSTVYMELSSLTSEDSAVYYCARSVYYGNKYFDVWGAGTTVTVSS
VL: DIQMTQSPSTLSASVGDRVTITCKASQSVDYAGDSYMNWYQQKPGKAPKLLIYAASNLESGVPSRFSGSGSGTEFTLTISSLQPDDFATYYCQQTNEDPRTFGGGTKLEIK
With B5 the binding [10] was “binds”, the binding [13] was “binds” and the binding [14] was “binds”.

B6: 5H9 (antibody, IgG2a, V domains shown)
VH: QVQLQQSGPDLVKPGASVKISCKASGYAFSTYWMNWVKQRPGKGLEWIGRIFPGDGDANYNGKFKGKATLTADKSSSTAYMQLSSLTSEDSAVYFCTRTGAAYDFDPFPYWGQGTLVTVSA
VL: DIVMTQAAFSNPVTLGTSASISCSSSKSLLHSNGVTYLYWYLQRPGQSPQLLIYRMSNLASGVPDRFSGSGSGTDFTLRISRVEAEDVGIYYCAQMLERPFTFGSGTKLEIK
For B6, the binding [2] was “binds” and the binding [3] was “binds”.

B7: 12H4 (antibody, V domains shown)
VH: EVQLQQSGPELVKPGASVKVSCKASGYTFTDYYIHWVKQRPGQGLEWIGEIYPGSDDAYYNEKFKGKATLTADKSSSTAYMQLSSLTSEDSAVYFCTRETTATAYWGQGTLVTVSA
VL: QIVLTQSPAIMSASPGEKVTITCSASSSVSLIYWFQQKPGTSPKLWIYSTSNLASGVPARFSGSGSGTSYSLTISRMEAEDAATYYCQQRSGYPPTFGGGTKLEIK
For B7, the binding [2] was “binds” and the binding [3] was “binds”.

B8: 16B6 (antibody, V domains shown)
VH: QVQLQQSGPELVKPGASVKISCKASGYAFSRSWMNWVKQRPGKGLEWIGWIYPGDGDTNYNGKFKGKATLTADKSSSTAYMQLSSLTSEDSAAYFCARSATLPYWYFDVWGAGTTVTVSS
VL: DIKMTQSPSSMYASLGERVTITCKASQDIKSYLSWYQQKPWKSPKTLIYYATNLADGVPSRFSGSGSGQDYSLTISSLGSDDTATYYCLQHVESPWTFGGGTKLEIK
In the case of B8, the binding [2] is reported as “binds” and the binding [3] is reported as “binds”.

B9: 16G9 (antibody, V domains shown)
VH: EVQLQQSGPELVKPGASVKMSCKASGYTFTDYYMNWVKQSHGKSLEWIGRVNPNNGGKTYNQKFKGKATLTVDKSLSTAYMQLNSLTSEDSAVYYCARWRLRPVDYGMDYWGQGTSVTVSS
VL: DIVLTQSPASLAVSLGQRATISCRASQSVSTSSYSYMHWYQQKPGQPPKLLIKYASNLESGVPARFSGSGSGTDFTLNIHPVEEEDTATYYCQHSWEIPFTFGSGTKLEIK
For B9, the binding [2] was “binds” and the binding [3] was “binds”.

B10: 17A7 (antibody, V domains shown)
VH: B6 VH with D10E, A24G, A58T, N59D, N61D, S77N, T97A, D104E
VL: B6 VL with S26T, N33S, V35I, I90V
With B10 the binding [2] was “binds” and the binding [3] was “binds”.

B11: 17E6 (antibody, V domains shown)
VH: EVQLQQSGPELVKPGASVKMSCKASGYTFTSYVIHWVKQKPGQGLEWIGYINPYSDYTQYNEKFKGKATLTSDKSSSTAYMELSSLTSEDSAVYSCARRADGNPYAMDYWGQGTSVTVSS
VL: DIVMTQSHKFMSTSVGDRVSTTCKASQDVSTAVVWYQQKPGQSPKLLIYSASYRYTGVPDRFTGSGSGTDFTFTITSVQAEDLAVYYCQQHYSTPFTFGSGTKLEIK
B11 was tested, and the binding [2] was “binds” and the binding [3] was “binds”.

B12: 19B5 (antibody, V domains shown)
VH: DVNLVESGGGLVKLGGSLKLSCAASGFTFSNYYMSWVRQSPEKRLEWVATISNNGDSTYYLDTVKGRFTISRDSAENTLYLQMSSLISEDTAVYYCTRVGTGFTYWGQGTLVTVSA
VL: DIVLTQSPATLSVTPGDSVSLSCRASQSINNYLHWYQQRSHESPRLLIKFASQSISDIPSRFSGSGSGTDFTLSINSIETEDFGMYFCQQSNSWPLTFGAGTKLELK
In the case of B12, the binding [2] is reported as “binds” and the binding [3] is reported as “binds”.

B13: 19E12 (antibody, V domains shown)
VH: QVQLQQSGAELVRPGASVKLSCKASGYTFTDYEMHWVRQTPVHGLEWIGGIDPETGGTAYNQKFKGKATLTADKSSSTAYMELRSLTSEDSAVYYCTRGAWFAYWGQGTLVTVSA
VL: QAVVTQESALTTSPGETVTLTCRSSTGAVTTSNSANWVQEKPDHLFTGLIGGTNNRAPGVPARFSGSLIGDKAALTITGAQTEDEAIYFCALWYNNHFVFGGGTKLTVL
With B13 the binding [2] was “binds” and the binding [3] was “binds”.

B14: 20C7 (antibody, V domains shown)
VH: B11 VH with K13N, S31A, I34M, N52F, S55N, Y57G, Q59E, S95Y, A100T, A106T
VL: B11 VL with T21I, V34A, Y49H, S65R, T76S
In the case of B14, the binding [2] is reported as “binds” and the binding [3] is reported as “binds”.
